Measurements reported in patent US20090176995A1, “Soluble fullerene derivatives” (NATIONAL UNIVERSITY CORPORATION NAGOYA INSTITUTE OF …, priority 2007, published 2009).

Experiments:
[1] = organic thin-film solar battery cell, fullerene derivative as acceptor with P3HT as donor
[2] = organic thin-film solar battery cell, fullerene derivative as acceptor with MEH-PPV as donor; settings: 2 mg MEH-PPV + 8 mg acceptor in 0.5 mL o-DCB, 2000 rpm, film heated at 100° C. for 10 minutes
[3] = P3HT 15 mg + acceptor 15 mg in 1.0 ml o-dichlorobenzene, spin coating 2000 rpm, film heated at 100° C. for 30 minutes
[4] = P3HT, o-dichlorobenzene, 2000 rpm, film heated at 100° C. for 30 minutes
[5] = P3HT, film heated at 150° C. for 30 minutes, electrodes by vapor deposition, heat treatment at 140° C. for 10 minutes
[6] = P3HT, o-dichlorobenzene, 2000 rpm, film heated at 150° C. for 30 minutes
[7] = P3HT, o-dichlorobenzene, 2000 rpm, film heated at 150° C. for 10 hours
[8] = P3HT, o-dichlorobenzene, 2000 rpm, film heated at 150° C. for 5 hours
[9] = P3HT, o-dichlorobenzene, 2000 rpm, film heated at 150° C. for 24 hours

Work on “1-(4-Methylsulfonylphenyl)-1-(3,4-dioctyloxyphenyl)-C61” yielded an Eff [1, 3] of 1.24%, an FF [1, 4] of 0.50 and an Isc [1, 4] of 4.43 mA/cm^2. For the same molecule, the Voc [1, 4] was 0.56 V.
Work on “Methyl 4-[1-(3,4-dioctyloxyphenyl)-C61]benzoate” yielded an Eff [1, 5] of 2.12%, an FF [1, 5] of 0.63 and an Isc [1, 5] of 5.18 mA/cm^2. The Voc [1, 5] was 0.65 V, the Eff [1, 6] was 1.47% and the FF [1, 6] was 0.53. The Isc [1, 6] was 4.93 mA/cm^2 and the Voc [1, 6] was 0.56 V.
Work on “3,5-Didecyloxybenzyl 4-(1-phenyl-C61)butyrate” yielded an Eff [1, 3] of 0.16%, an FF [1, 4] of 0.37 and an Isc [1, 4] of 2.28 mA/cm^2. For the same molecule, the Voc [1, 4] was 0.19 V.
With “1-(3,4-Dioctyloxyphenyl)-1-(4-nitrophenyl)-C61” the Eff [1, 3] was 0.16%, the FF [1, 4] was 0.37 and the Isc [1, 4] was 2.28 mA/cm^2. The Voc [1, 4] was 0.19 V.
With “Methyl 1-(3,4,5-trioctyloxyphenyl)-C71-4-benzoate” the Eff [1, 3] was 1.60%, the FF [1, 4] was 0.55 and the Isc [1, 4] was 4.90 mA/cm^2. For the same molecule, the Voc [1, 4] was 0.60 V, the Eff [2] was 0.76% and the FF [2] was 0.32. The Isc [2] was 2.84 mA/cm^2 and the Voc [2] was 0.82 V.
Work on “1-(3,4-Dioctyloxyphenyl)-1-(1-phenoxybutyl)-C61” yielded an Eff [1, 3] of 0.094%, an FF [1, 4] of 0.37 and an Isc [1, 4] of 0.95 mA/cm^2. The Voc [1, 4] was 0.27 V.
“Methyl 1-(3,4,5-Trioctyloxyphenyl)-C61-4-benzoate” gave an Eff [1, 3] of 1.50%, an FF [1, 4] of 0.49 and an Isc [1, 4] of 4.60 mA/cm^2. It also gave a Voc [1, 4] of 0.66 V.
For “1,1′-bis(4-tert-butoxycarbonylphenyl)-C61”, the Eff [1, 3] was 0.75%, the FF [1, 4] was 0.49 and the Isc [1, 4] was 2.97 mA/cm^2. The Voc [1, 4] was 0.51 V.
With “1-(3,4-Dioctyloxyphenyl)-1-[4-(2,3,4,5,6-pentafluorophenoxy)butyl]C61” the Eff [1, 7] was 0.028%, the FF [1, 7] was 0.38 and the Isc [1, 7] was 0.46 mA/cm^2. For the same molecule, the Voc [1, 7] was 0.16 V.
Work on 1,1′-Bis(4-hexyloxycarbonylphenyl)-C61 yielded an Eff [1, 3] of 1.31%, an FF [1, 4] of 0.58 and an Isc [1, 4] of 3.91 mA/cm^2. The Voc [1, 4] was 0.57 V.
“Perfluorooctylethyl Phenyl C61-4-benzoate” showed an Eff [1, 3] of 0.36%, an FF [1, 4] of 0.38 and an Isc [1, 4] of 2.03 mA/cm^2. It also gave a Voc [1, 4] of 0.46 V.
For `CCCCCCCCOc1ccc(C2(c3ccc(C#N)cc3)C34c5c6c7c8c9c%10c(c%11c%12c3c3c%13c5c5c%14c6c6c8c8c9c9c%15c%10c%11c%10c%11c%12c3c3c%12c%13c5c5c%13c%14c6c6c8c8c9c9c%15c%10c%10c%11c3c3c%12c5c5c%13c6c8c6c9c%10c3c56)C724)cc1OCCCCCCCC` (stereo not shown) [1-(4-cyanophenyl)-1-(3,4-dioctyloxyphenyl)-C61], the FF [1, 4] was 0.40, the Isc [1, 4] was 4.09 mA/cm^2 and the Voc [1, 4] was 0.52 V.
In the case of “1-(3,4-Dioctyloxyphenyl)-1-[4-(4-iodophenoxy)butyl]C61”, the Eff [1, 3] is reported as 0.15%, the FF [1, 4] is reported as 0.32 and the Isc [1, 4] is reported as 1.87 mA/cm^2. It also gave a Voc [1, 4] of 0.26 V, an Eff [1, 8] of 0.25% and an FF [1, 8] of 0.38. It also gave an Isc [1, 8] of 2.68 mA/cm^2 and a Voc [1, 8] of 0.25 V.
In the case of “Methyl 1-(4-Octyloxyphenyl)-C61-4-benzoate”, the Eff [1, 3] is reported as 1.05% and 0.022% and the Voc [1, 4] is reported as 0.60 V and 0.49 V.
“4-{4-[(3,4-Dioctyloxyphenyl)-C61]butoxy}benzene-1,2-dicarbonitrile” showed an Eff [1, 3] of 0.17%, an FF [1, 4] of 0.40 and an Isc [1, 4] of 1.31 mA/cm^2. It also gave a Voc [1, 4] of 0.33 V, an Eff [1, 8] of 0.24% and an FF [1, 8] of 0.39. The Isc [1, 8] was 1.74 mA/cm^2 and the Voc [1, 8] was 0.35 V.
In the case of “1-(Benzo[b]thiophen-2-yl)-1-[4-(2,3,4,5,6-pentafluorophenoxy)butyl]C61”, the Eff [1, 9] is reported as 0.025%, the FF [1, 9] is reported as 0.31 and the Isc [1, 9] is reported as 0.25 mA/cm^2. For the same molecule, the Voc [1, 9] was 0.33 V.
Molecule “1-(3,4-Dioctyloxyphenyl)-1-(4-trifluoromethylsulfonylphenyl)-C61” has an Eff [1, 3] of 0.86%, an FF [1, 4] of 0.43 and an Isc [1, 4] of 4.20 mA/cm^2. The Voc [1, 4] was 0.48 V.
In the case of “Dimethyl 1-(3,4-dioctyloxyphenyl)-C61-benzene-1,3-dioate”, the Eff [1, 3] is reported as 1.00%, the FF [1, 4] is reported as 0.59 and the Isc [1, 4] is reported as 3.13 mA/cm^2. For the same molecule, the Voc [1, 4] was 0.54 V.

Several values for one entry are separate records, joined by “and”; a condition that tells them apart may be missing. Identical values can stand only once.
